# Test results: PubChem BioAssay (NCATS)
# The shares of active, inactive and inconclusive entries below differ from those in the screen. Potencies beside an inconclusive call are fits to weak or partial responses and may not hold up. The source made the active and inactive calls. Calls follow the shape of the dose curve; as a rule, active = well fitted cell-killing curve with a large enough effect; inconclusive = small, poorly fitted or top-dose-only effect, or effect the other way; inactive = no such curve, though single readings can be large or run the other way.
# Test: Quantitative High-Throughput drug screen in 47 multiple myeloma cell lines against the NCATS MIPE library collection: JIM1_ECACC cell viability assay (AID 1918964)
# Settings: JIM1 myeloma viability, CellTiter-Glo ATP luminescence, 48 h; viability (% of DMSO): at 45.8 µM (top of the series)
# Method in brief: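 CellTiter-Glo luminescence (ATP) after 48 h compound exposure, 37C/5% CO2; 500 cells/well; MIPE 4.0 approved/investigational drugs pinned in; DMSO = 100%, media only = 0% viability.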
# Potency is read from the fitted curve at half-maximal effect.
row,SMILES,Potency
1,NC(=NCCCCCCN=C(N)N=C(N)Nc1ccc(Cl)cc1)N=C(N)Nc1ccc(Cl)cc1,active: 23.5 µM
2,Fc1ccc(Cl)cc1-c1nc(Nc2ccncc2)c2nccnc2n1,"inconclusive: 5.26 µM [cytotoxic, full curve, poor fit]"
3,COc1cc2c(cc1-c1c(C)noc1C)ncc1[nH]c(=O)n([C@H](C)c3ccccn3)c12,active: 5.9 µM
4,Cc1ccc(-c2ncn(-c3ccc(Nc4nccc(-c5cccc(N6CCOCC6)c5)n4)cc3)n2)cn1,active: 0.0662 µM
5,CN1CC(=O)NC1=NC(=O)Nc1cccc(Cl)c1,"inconclusive: 8.33 µM [cytotoxic, partial curve, poor fit]"
6,Nc1nc2c(ncn2COC(CO)CO)c(=O)[nH]1,active: 20.9 µM
7,N#CC[C@H](C1CCCC1)n1cc(-c2ncnc3[nH]ccc23)cn1,"inconclusive: 4.18 µM [cytotoxic, partial curve, poor fit]"
8,CCCCN1CCC(CNC(=O)c2c3n(c4ccccc24)CCCO3)CC1,"inconclusive: 8.33 µM [cytotoxic, partial curve, poor fit]"
9,Cc1ccc(S(=O)(=O)OCC(=O)Nc2ccc(C(=O)O)c(O)c2)cc1,"inconclusive: 33.2 µM [cytotoxic, single point]"
10,CC(C)NC[C@@H](C(=O)N1CCN(c2ncnc3c2[C@H](C)C[C@H]3O)CC1)c1ccc(Cl)cc1,"inconclusive: 1.18 µM [cytotoxic, partial curve, poor fit]"
11,CCN1CCN(c2ccc(Nc3cc(N(C)C(=O)Nc4c(Cl)c(OC)cc(OC)c4Cl)ncn3)cc2)CC1,"inconclusive: 0.0012 µM [rising, full curve, poor fit]"
12,FC(F)c1nc2ccccc2n1-c1nc(N2CCOCC2)nc(N2CCOCC2)n1,"inconclusive: 0.0418 µM [cytotoxic, full curve]"
13,CCCCOc1c(C(=O)c2c(F)cc(C)cc2F)cnc2n[nH]cc12,active: 2.96 µM

# Retrieved by structure from the entries so far, 2 records:
row,SMILES,Potency
1,NC(=NCCCCCCN=C(N)N=C(N)Nc1ccc(Cl)cc1)N=C(N)Nc1ccc(Cl)cc1,active: 23.5 µM
5,CN1CC(=O)NC1=NC(=O)Nc1cccc(Cl)c1,"inconclusive: 8.33 µM [cytotoxic, partial curve, poor fit]"

# Test: Quantitative High-Throughput drug screen in 47 multiple myeloma cell lines against the NCATS MIPE library collection: INA6_PLB cell viability assay (AID 1918965; also: nearly all actives have a fitted effect of over 55% in size)
# Settings: INA6 myeloma viability, CellTiter-Glo ATP luminescence, 48 h; viability (% of control): at 45.8 µM (top of the series) unless noted
# Method in brief: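 Myeloma cell lines, 500 cells per well, exposed to MIPE 4.0 library compounds for 48 h at 37C, 5% CO2. Viability from ATP by CellTiter-Glo luminescence; normalised to DMSO (100%) and media-only (0%) wells.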
SMILES,Potency,viability (% of control)
CC(C)(Sc1ccc(CCN(CCCCC2CCCCC2)C(=O)NC2CCCCC2)cc1)C(=O)O,"inconclusive: 16.6 µM [cytotoxic, partial curve, poor fit]",
CCNC(=O)Nc1ccc(Oc2ncnc(N)c2C=NOC)cc1Cl,"inconclusive: 9.35 µM [cytotoxic, partial curve, poor fit]",
Cc1cc(Nc2cc(N3CCN(C)CC3)nc(C=Cc3ccccc3)n2)n[nH]1,active: 3.4 µM,
c1ccc([C@H]2CN3CCSC3=N2)cc1,"inconclusive: 37.2 µM [cytotoxic, single point]",
Cc1cccc(N(C)C(=S)Oc2ccc3ccccc3c2)c1,inactive,
C[C@]12CCC(=O)C=C1CC[C@@H]1[C@H]2[C@@H](O)C[C@@]2(C)[C@H]1CC[C@]2(O)C(=O)CO,"inconclusive: 23.5 µM [cytotoxic, single point]",
NCCCC(N)(C(=O)O)C(F)F (stereo not given),"inconclusive: 1.48 µM [cytotoxic, partial curve, poor fit]",
COc1cccc2nc(-c3cccs3)nc(NN3C(=O)C=C(C)C3=O)c12,,inconclusive: 3.05% [cytotoxic]
O=c1c(O)c(-c2ccc(O)cc2O)oc2cc(O)cc(O)c12,"inconclusive: 20.9 µM [cytotoxic, single point]",
CN(C)c1nc(Cc2ccc(NC(=O)c3ccc4ccccc4c3)cc2)nc(Cl)c1CC(=O)O,inactive,
Cc1c(C(=O)NN2CCCCC2)nn(-c2ccc(Cl)cc2Cl)c1-c1ccc(Cl)cc1,"inconclusive: 29.6 µM [cytotoxic, single point]",
NC(=O)c1cnccn1,inactive,
